From patent publication US20050032124A1, “Identification of genotype-selective agents for treating Huntington's disease” (priority 2003, published 2005)
“Also recorded” adds a separate entry of the source. At least one compound was matched to its structure with a doubt left.

Experiments:
Assay type in all cases: cell-based, human
BJ-TERT cells = assay: Calcein AM viability assay, dilution-series retest; details: longer treatments and higher concentrations; concentrations eight-fold higher than required in cells expressing RAS^V12 and ST
Excerpt: Described here is work carried out to identify compounds with increased potency or activity in the presence of hTERT, LT, ST, E6, E7 or RAS^V12. Engineered cell lines with these genetic elements were used to screen […] compounds, including 20,000 compounds from a combinatorial library, 1,990 compounds from the National Cancer Institute diversity collection, and 1,540 biologically active known compounds that were selected and purchased by Applicant and formatted into a screenable collection. […] Cell viability was measured using the dye calcein acetoxymethyl ester (calcein AM) (Wang et al., 1993, Hum. Immunol. 3 7, 264-270), which is a non-fluorescent compound that freely diffuses into cells. […]
(§1) Calcein acetoxylmethyl ester (AM) is a cell membrane-permeable, non-fluorescent compound that is cleaved by intracellular esterases to form the anionic, cell-impermeable, fluorescent compound calcein. […] Total fluorescence intensity in each well was recorded on a Packard Fusion platereader, and converted to a percent inhibition of signal by subtracting the instrument background and dividing by the average signal obtained when cells were not treated with any compound. […]

[1] = tested on: BJ-TERT/LT/ST/RAS^V12 tumorigenic cells; assay: Calcein AM viability assay, dilution-series retest
Description: Described here is work carried out to identify compounds with increased potency or activity in the presence of hTERT, LT, ST, E6, E7 or RAS^V12. […] The primary screen tested (in quadruplicate) the effect of treating tumorigenic BJ-TERT/LT/ST/RAS^V12 engineered tumorigenic cells with each compound for 48 hours at a concentration of 4 μg/mL, corresponding to 10 μM for a compound with a molecular weight of 400, which is the approximate median molecular weight of the libraries. Cell viability was measured using the dye calcein acetoxymethyl ester (calcein AM) (Wang et al., 1993, Hum. Immunol. 3 7, 264-270), which is a non-fluorescent compound that freely diffuses into cells. In live cells, calcein AM is cleaved by intracellular esterases, forming the anionic fluorescent derivative calcein, which cannot diffuse out of live cells. […]
as §1

[2] = tested on: active, cleaved form of caspase 3; assay: Western blot for active caspase-3; details: BJ-TERT/LT/ST/RAS^V12 cells
Description: BJ-TERT/LT/ST/RAS^V12 cells were seeded prior to the experiment at 5×10^5 cells in 60 mm dishes. The cells were treated with 5 μg/ml erastin (9 μM) for 2, 4, 6, 8 or 10 hours. One dish was maintained for camptothecin treatment (0.4 μg/ml for 24 h) as a positive control. Cells were lysed after each time point in lysis buffer (50 mM HEPES KOH pH […] NaCl, 2 mM EDTA, 0.5% Triton X-100, 1.5 mM Na3VO4, 50 mM NaF, 10 mM sodium pyrophosphate, 10 mM sodium beta-glycerophosphate and protease inhibitor tablet (Roche)). Protein content was quantified using a Biorad protein assay reagent. Equal amounts of protein were resolved on 16% SDS-polyacrylamide gel. The electrophoresed proteins were transblotted onto a PVDF membrane, blocked with 5% milk and incubated with anti-active caspase-3 polyclonal antibody (BD Pharmingen) at 1:1500 dilution overnight at 4° C. The membrane was then incubated in anti-rabbit-HRP (Santa Cruz Biotechnology) at 1:3000 dilution for 1 hour and developed with an enhanced chemiluminescence mixture (NEN life science, Renaissance). To test for equivalent loading in each lane, blots were stripped, blocked, and probed with an anti-eIF-4E antibody (BD Transduction laboratories) at 1:1000 dilution.

[3] = tested on: BJ-TERT/LT/ST/RAS^V12 cells; assay: Block of compound-induced cell death by pan-caspase inhibitor; details: 50 μM Boc-Asp(Ome)-fluoromethyl ketone
TIP5/TERT/E6/E7 cells = assay: Calcein AM viability assay, dilution-series retest
Excerpt: In a third series, cell lines derived from independently prepared human TIP5 foreskin fibroblasts created by introducing cDNA constructs encoding hTERT, LT, ST and RASV12 (Lessnick et al., 2002, Cancer Cell 1, 393-401) were used. These cell lines were called, respectively: TIP5/TERT, TIP5/TERT/LT, TIP5/TERT/LT/ST, and TIP5/TERT/LT/ST/RAS^V12. In a fourth series, cell lines derived from TIP5 fibroblasts created by introducing cDNA constructs encoding hTERT, E6, E7, ST and RAS^V12 were used. These cell lines were named, respectively: TIP5/TERT/E6, TIP5/TERT/E6/E7, TIP5/TERT/E6/E7/ST, and TIP5/TERT/E6/E7/ST/RAS^V12. In this series, HPV E6 and E7, which inactivate p53 and RB, respectively, serve a similar function as LT in the previous series. […]
as §1
Mean RFU (relative fluorescence units) for untreated cells was calculated by averaging columns 1, 2, and 23 (wells with cells but lacking compounds). […]

[4] = tested on: BJ-TERT/LT/ST/RAS^V12 cells; assay: Characterization of erastin-induced cell death (Trypan Blue, JC-1, replating)
[5] = tested on: BJ-TERT/LT/ST/RAS^V12 cells; assay: DNA fragmentation (DNA ladder)
reactive oxygen species = assay: ROS analysis, flow cytometry using H2DCF-DA; details: engineered cells
Excerpt: 2′7′ dichlorodihydrofluorescein diacetate (H2DCF-DA) is a non-fluorescent cell permeable compound. The endogenous esterase enzyme inside the cell cleaves the diacetate part, and it can no longer pass out of the cell. Thus it accumulates in the cell. Then H2DCF reacts with ROS to form fluorescent dichlorofluorescene (DCF) which can be measured by flow cytometry in FL1 channel. • 1. Seed cells at 3×10^5 cells per dish in 60 mm dishes and allow to grow overnight. • 2. Treat with the test compound for different period of time (1-10 hr). • 3. Maintain one dish for untreated cells, compound treated cell and positive control dish (hydrogen peroxide treated) for each time point. • 4. Incubate the cells with 10 μM of H2DCF-DA for 10 minutes at 37° C. • 5. For positive control cells, after 5 minutes of H2DCF-DA loading, add 500 μM of hydrogen peroxide and incubate for 5 minutes further. • 6. Harvest the cell by trypsinization. • 7. Wash with cold PBS-twice. • 8. Resuspend the pellet in 100 μl of PBS and transfer into 5 ml FACS tube. • 9. Add 5 μl of propidium iodide (50 μg/ml) and incubate for 10 minutes on ice in dark. • 10. Add 400 μl of PBS and analyze by flow cytometry (Becton-Dickinson). • 11. Acquire the data and analyze using CellQuest software program. • 12. […]

[6] = tested on: BJ-TERT/LT/ST/RAS^V12 cells; assay: Nuclear morphology assay; details: 9 μM erastin or 1.1 μM CPT, 18 hours
Excerpt: Applicants sought to characterize the type of cell death induced by CPT and erastin in tumorigenic BJ-TERT/LT/ST/RAS^V12 cells. […] To determine whether erastin or CPT induces apoptosis in their system, Applicants monitored the nuclear morphology of CPT- and erastin-treated tumorigenic cells using fluorescence microscopy. […] Since nuclear morphological change is required of apoptotic cells, Applicants conclude that cell death induced by erastin is non-apoptotic. […] Additionally, nuclei remained intact in erastin-treated tumor cells (FIG. 9).
200,000 tumorigenic BJ-TERT/LT/ST/RAS^V12 cells were seeded in 2 mL on glass coverslips in each well of a six-well dish, treated with nothing (NT), 9 μM erastin or 1.1 μM camptothecin (CPT) in growth medium for 18 hours while incubating at 37° C. with 5% CO2. Nuclei were stained with 25 μg/mL Hoechst 33342 (Molecular Probes) and viewed using an oil immersion 100× objective on a fluorescence microscope.

CCOc1ccccc1-n1c(C(C)N2CCN(C(=O)COc3ccc(Cl)cc3)CC2)nc2ccccc2c1=O (stereo not drawn) [Erastin]
effect on viability of cells lacking RAS^V12 and ST (BJ-TERT cells): little effect; also recorded: failed to kill cells lacking RAS^V12 and ST | time to 100% effective cell death ([1]; BJ-TERT/LT/ST/RAS^V12 cells): ≤ 18 h | time of irreversible, non-apoptotic cell death ([1]; ST- and RAS^V12-dependent): 12 to 24 h | activated caspase 3 (western blot) [2]: but not erastin-treated | cell death blocked by pan-caspase inhibitor [3]: but not by erastin | activity in cells lacking RB function (via expression of E7) (TIP5/TERT/E6/E7 cells): whereas erastin is not | Trypan Blue exclusion ([4]; erastin for 18 hours): failed to exclude the vital dye Trypan Blue | mitochondrial membrane potential (JC-1) ([4]; erastin for 18 hours): loss of mitochondrial membrane potential | reversibility of loss of viability ([4]; erastin for 24 hours, replated in erastin-free medium): irreversible once completed | DNA fragmentation (formation of a DNA ladder) [5]: but not erastin | formation of reactive oxygen species (ROS) (reactive oxygen species): induces the formation of reactive oxygen species | nuclear morphology (karyorhexis and margination of chromatin) [6]: no such morphological alternation was visible
